These are yes or no findings as the source states them, for the method shown. Some binding calls cover weakened binding; strength is not graded here.
B1: RTX-MT clone 148 (antibody, human IgG1, kappa, V domains shown)
VH: QVQLQQPGAELVKPGASVKMSCKASGYTFTSYNMHWVKQTPGRGLEWIGAIYPGNGDTSYNQKFKGKATLTADKSSSTAYMQLSSLTSEDSAVYYCARSTYFGGDWYFNVWGAGTTVTVSA
VL: QIVLSQSPAILSASPGEKVTMTCRASSSVSYIHWFQQKPGSSPKPWIYATSNLASGVPVRFSGSGSGTSYSLTISRVEAEDAATYYCQQWTSNPPTFGGGTKLEIKR
B2: RTX-MT clone 199 (antibody, human IgG1, kappa, V domains shown)
VH: QVQLQQPGAELVKPGASVKMSCKASGYTFTSYNMHWVKQTPGRGLEWIGAIYPGNGDTSYNQKFKGKATLTADKSSSTAYMQLSSLTSEDSAVYYCARSTYYGGDWYLNVWGAGTTVTVSA
VL: QIVLSQSPAILSASPGEKVTMTCRASSSVSYIHWFQQKPGSSPKPWIYATSNLASGVPVRFSGSGSGTSYSLTISRVEAEDAATYYCQQWTSNPPTFGGGTKLEIKR
B3: RTX-MT clone 164 (antibody, human IgG1, kappa, V domains shown)
VH: QVQLQQPGAELVKPGASVKMSCKASGYTFTSYNMHWVKQTPGRGLEWIGAIYPGNGDTSYNQKFKGKATLTADKSSSTAYMQLSSLTSEDSAVYYCARSTYYCGDWYFNVWGAGTTVTVSA
VL: QIVLSQSPAILSASPGEKVTMTCRASSSVSYIHWFQQKPGSSPKPWIYATSNLASGVPVRFSGSGSGTSYSLTISRVEAEDAATYYCQQWTSNPPTFGGGTKLEIKR
B4: RTX-MT clone 198 (antibody, human IgG1, kappa, V domains shown)
VH: QVQLQQPGAELVKPGASVKMSCKASGYTFTSYNMHWVKQTPGRGLEWIGAIYPGNGDTSYNQKFKGKATLTADKSSSTAYMQLSSLTSEDSAVYYCARSTYYGGDWCFNVWGAGTTVTVSA
VL: QIVLSQSPAILSASPGEKVTMTCRASSSVSYIHWFQQKPGSSPKPWIYATSNLASGVPVRFSGSGSGTSYSLTISRVEAEDAATYYCQQWTSNPPTFGGGTKLEIKR

biological target: human CA125/MUC16 protein (human) (UniProt Q8WXI7); assay: ELISA, CA125-coated wells, biotinylated antibody

binding, binds:
B1
B2
B3
B4

Reference: US20230203182A1
